The target of the assay is T1, Strep-SMCR8 full-length (SMCR8 wild-type) (human) (UniProt Q8TEV9).
T1 sequence: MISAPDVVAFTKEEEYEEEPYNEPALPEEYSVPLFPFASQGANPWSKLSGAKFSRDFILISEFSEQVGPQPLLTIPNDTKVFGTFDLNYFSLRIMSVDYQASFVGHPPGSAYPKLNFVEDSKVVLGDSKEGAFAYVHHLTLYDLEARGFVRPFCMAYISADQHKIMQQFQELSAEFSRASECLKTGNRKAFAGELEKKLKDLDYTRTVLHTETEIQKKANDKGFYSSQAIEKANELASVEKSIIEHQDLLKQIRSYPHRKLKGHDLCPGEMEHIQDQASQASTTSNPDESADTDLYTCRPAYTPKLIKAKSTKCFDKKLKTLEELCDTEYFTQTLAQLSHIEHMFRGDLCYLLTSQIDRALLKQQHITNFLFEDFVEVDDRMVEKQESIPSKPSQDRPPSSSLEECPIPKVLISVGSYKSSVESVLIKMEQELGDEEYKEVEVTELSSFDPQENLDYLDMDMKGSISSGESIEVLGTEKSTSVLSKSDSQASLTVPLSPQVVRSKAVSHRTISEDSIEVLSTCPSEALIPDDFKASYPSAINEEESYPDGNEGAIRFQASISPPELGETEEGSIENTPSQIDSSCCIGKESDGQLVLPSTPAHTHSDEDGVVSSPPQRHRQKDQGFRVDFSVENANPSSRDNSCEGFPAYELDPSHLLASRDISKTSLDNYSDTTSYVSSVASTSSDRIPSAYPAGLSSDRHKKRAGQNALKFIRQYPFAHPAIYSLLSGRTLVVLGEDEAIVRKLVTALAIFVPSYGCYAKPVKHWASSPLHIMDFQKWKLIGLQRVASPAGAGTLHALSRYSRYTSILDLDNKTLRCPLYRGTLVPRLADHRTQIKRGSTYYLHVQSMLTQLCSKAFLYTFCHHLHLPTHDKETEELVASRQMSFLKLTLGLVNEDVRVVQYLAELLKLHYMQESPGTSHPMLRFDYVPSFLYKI
Nature of the assay: affinity purification with mass spectrometry; Strep-SMCR8 (WT or ΔCC) and C9orf72 transfected into HEK293T; cells fed or starved 90 minutes (amino acid- and glucose-free media) before lysis; magnetic Strep-Tactin beads; label-free quantification (LFQ), triplicates.

Sequences of proteins named here, by UniProt entry; tags and fusion partners are left off.
UniProt Q8TDY2: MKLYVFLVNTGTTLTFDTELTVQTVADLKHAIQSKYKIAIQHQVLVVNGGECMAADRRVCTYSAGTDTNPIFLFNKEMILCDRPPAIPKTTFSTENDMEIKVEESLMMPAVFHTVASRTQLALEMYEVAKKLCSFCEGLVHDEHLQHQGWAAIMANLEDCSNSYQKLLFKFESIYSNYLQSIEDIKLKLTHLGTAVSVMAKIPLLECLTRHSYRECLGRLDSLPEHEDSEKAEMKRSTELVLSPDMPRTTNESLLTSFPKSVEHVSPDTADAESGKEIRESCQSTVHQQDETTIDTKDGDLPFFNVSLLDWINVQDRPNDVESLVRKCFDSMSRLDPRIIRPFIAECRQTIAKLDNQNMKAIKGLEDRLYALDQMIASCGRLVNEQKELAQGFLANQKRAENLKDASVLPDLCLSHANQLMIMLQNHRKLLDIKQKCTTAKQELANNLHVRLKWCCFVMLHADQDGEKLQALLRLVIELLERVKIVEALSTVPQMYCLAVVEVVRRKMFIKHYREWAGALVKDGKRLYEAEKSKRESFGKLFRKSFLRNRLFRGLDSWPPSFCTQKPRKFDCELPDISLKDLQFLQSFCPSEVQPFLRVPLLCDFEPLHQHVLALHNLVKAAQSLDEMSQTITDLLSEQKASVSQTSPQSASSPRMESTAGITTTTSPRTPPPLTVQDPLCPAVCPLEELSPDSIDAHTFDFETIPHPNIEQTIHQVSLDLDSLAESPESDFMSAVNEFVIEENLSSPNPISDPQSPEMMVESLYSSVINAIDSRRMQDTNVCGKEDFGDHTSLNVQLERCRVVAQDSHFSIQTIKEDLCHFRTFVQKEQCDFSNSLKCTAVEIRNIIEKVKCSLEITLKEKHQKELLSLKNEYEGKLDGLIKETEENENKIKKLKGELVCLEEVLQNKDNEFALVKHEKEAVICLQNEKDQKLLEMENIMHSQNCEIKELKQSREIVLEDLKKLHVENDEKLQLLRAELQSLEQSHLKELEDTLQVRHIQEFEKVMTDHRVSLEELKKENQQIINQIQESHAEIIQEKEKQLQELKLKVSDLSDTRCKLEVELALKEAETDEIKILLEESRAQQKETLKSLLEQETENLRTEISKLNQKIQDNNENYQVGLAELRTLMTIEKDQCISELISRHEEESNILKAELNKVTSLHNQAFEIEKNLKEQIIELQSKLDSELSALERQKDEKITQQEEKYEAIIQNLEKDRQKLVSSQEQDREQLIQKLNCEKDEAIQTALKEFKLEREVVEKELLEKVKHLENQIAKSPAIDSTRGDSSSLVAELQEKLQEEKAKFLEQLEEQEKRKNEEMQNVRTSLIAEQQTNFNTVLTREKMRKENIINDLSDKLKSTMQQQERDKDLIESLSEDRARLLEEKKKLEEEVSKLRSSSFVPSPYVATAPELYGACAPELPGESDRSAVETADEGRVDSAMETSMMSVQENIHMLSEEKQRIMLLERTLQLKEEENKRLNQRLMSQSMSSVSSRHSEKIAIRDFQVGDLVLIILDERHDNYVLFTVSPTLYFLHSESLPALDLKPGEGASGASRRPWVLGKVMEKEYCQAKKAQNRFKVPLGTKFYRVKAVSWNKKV

No constants are given. Whether binding was seen depends on the method and setting. Binding seen in cells or lysates may run through a third protein. A yes stands for co-enrichment or nearness to the bait. Other partners may have been found.

For the substance “FIP200 (in HEK293T cells) (from UniProt Q8TDY2 1-1594)”, the binding result is given as “binds”.

The record behind these values is article PMC8336837, “Structure of the human C9orf72-SMCR8 complex reveals a multivalent protein interaction architecture” (PLoS Biology, 2021).
